Measurements from article PMC8384837.
Substitutions are numbered along the chain they refer to. Some of the results follow. At the low end of the ranking the order means little.

Experiments:
Settings in all cases: yeast three-hybrid, YBZ-1, SC-Leu-His + 0.5 mM 3-AT, 4 days
[1] = biological target: T1, PUM1 PUF domain R5-CNH R1008N + Q1011H (UniProt Q14671)
T1 sequence: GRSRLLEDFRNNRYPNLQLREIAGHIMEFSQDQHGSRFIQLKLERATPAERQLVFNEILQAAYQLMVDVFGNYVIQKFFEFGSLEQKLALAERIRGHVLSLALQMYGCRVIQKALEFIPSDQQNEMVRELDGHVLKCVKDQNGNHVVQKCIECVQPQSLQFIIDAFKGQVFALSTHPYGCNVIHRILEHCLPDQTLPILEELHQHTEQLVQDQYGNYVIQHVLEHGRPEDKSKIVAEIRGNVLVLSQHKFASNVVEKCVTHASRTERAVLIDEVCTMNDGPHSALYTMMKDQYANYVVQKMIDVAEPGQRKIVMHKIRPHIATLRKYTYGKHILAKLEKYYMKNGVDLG

[2] = biological target: T2, PUM1 PUF domain R5-DGA C1007D + R1008G + Q1011A (UniProt Q14671)
T2 sequence: T1 sequence with C180D, N181G, H184A

[3] = biological target: T3, PUM1 PUF domain R5-DHW C1007D + R1008H + Q1011W (UniProt Q14671)
T3 sequence: T1 sequence with C180D, N181H, H184W

[4] = biological target: T4, PUM1 PUF domain R5-DIR C1007D + R1008I + Q1011R (UniProt Q14671)
T4 sequence: T1 sequence with C180D, N181I, H184R

[5] = biological target: T5, PUM1 PUF domain R5-DRR C1007D + Q1011R (UniProt Q14671)
T5 sequence: T1 sequence with C180D, N181R, H184R

[6] = biological target: T6, PUM1 PUF domain R5-EGE C1007E + R1008G + Q1011E (UniProt Q14671)
T6 sequence: T1 sequence with C180E, N181G, H184E

[7] = biological target: T7, PUM1 PUF domain R5-FNS C1007F + R1008N + Q1011S (UniProt Q14671)
T7 sequence: T1 sequence with C180F, H184S

[8] = biological target: T8, PUM1 PUF domain R5-HCR C1007H + R1008C + Q1011R (UniProt Q14671)
T8 sequence: T1 sequence with C180H, N181C, H184R

[9] = biological target: T9, PUM1 PUF domain R5-KCV C1007K + R1008C + Q1011V (UniProt Q14671)
T9 sequence: T1 sequence with C180K, N181C, H184V

[10] = biological target: T10, PUM1 PUF domain R5-KPC C1007K + R1008P + Q1011C (UniProt Q14671)
T10 sequence: T1 sequence with C180K, N181P, H184C

[11] = biological target: T11, PUM1 PUF domain R5-KVE C1007K + R1008V + Q1011E (UniProt Q14671)
T11 sequence: T1 sequence with C180K, N181V, H184E

[12] = biological target: T12, PUM1 PUF domain R5-RDR C1007R + R1008D + Q1011R (UniProt Q14671)
T12 sequence: T1 sequence with C180R, N181D, H184R

[13] = biological target: T13, PUM1 PUF domain R5-RGD C1007R + R1008G + Q1011D (UniProt Q14671)
T13 sequence: T1 sequence with C180R, N181G, H184D

[14] = biological target: T14, PUM1 PUF domain R5-RGW C1007R + R1008G + Q1011W (UniProt Q14671)
T14 sequence: T1 sequence with C180R, N181G, H184W

[15] = biological target: T15, PUM1 PUF domain R5-RLD C1007R + R1008L + Q1011D (UniProt Q14671)
T15 sequence: T1 sequence with C180R, N181L, H184D

[16] = biological target: T16, PUM1 PUF domain R5-RLT C1007R + R1008L + Q1011T (UniProt Q14671)
T16 sequence: T1 sequence with C180R, N181L, H184T

[17] = biological target: T17, PUM1 PUF domain R5-RMD C1007R + R1008M + Q1011D (UniProt Q14671)
T17 sequence: T1 sequence with C180R, N181M, H184D

[18] = biological target: T18, PUM1 PUF domain R5-RPN C1007R + R1008P + Q1011N (UniProt Q14671)
T18 sequence: T1 sequence with C180R, N181P, H184N

[19] = biological target: T19, PUM1 PUF domain R5-RQW C1007R + R1008Q + Q1011W (UniProt Q14671)
T19 sequence: T1 sequence with C180R, N181Q, H184W

[20] = biological target: T20, PUM1 PUF domain R5-WSR C1007W + R1008S + Q1011R (UniProt Q14671)
T20 sequence: T1 sequence with C180W, N181S, H184R

GGCUAGAACUAGUGGAUCCCCCGGCGCCCGGCGGCUCGAGCCCGGGUAAGUGUAAAUAGUCUGCAUGCCGCCGGGCGCCAUGCCUGCAGGUCGACUCUAGAAAACAUG
binding signal (log2 enrichment (interaction score)) [1]: < -7.09 | binding signal (log2 enrichment (interaction score)) [2]: < -8.63 | binding signal (log2 enrichment (interaction score)) [3]: < -5.95 | binding signal (log2 enrichment (interaction score)) [4]: -5.46 | binding signal (log2 enrichment (interaction score)) [5]: -4.85 | binding signal (log2 enrichment (interaction score)) [6]: -5.2 | binding signal (log2 enrichment (interaction score)) [7]: < -6.04 | binding signal (log2 enrichment (interaction score)) [8]: -5.78 | binding signal (log2 enrichment (interaction score)) [9]: -4.89 | binding signal (log2 enrichment (interaction score)) [10]: -5.11 | binding signal (log2 enrichment (interaction score)) [11]: < -6.29 | binding signal (log2 enrichment (interaction score)) [12]: -5.9 | binding signal (log2 enrichment (interaction score)) [13]: -6.93 | binding signal (log2 enrichment (interaction score)) [14]: -6.82 | binding signal (log2 enrichment (interaction score)) [15]: -5.83 | binding signal (log2 enrichment (interaction score)) [16]: < -9.47 | binding signal (log2 enrichment (interaction score)) [17]: -4.53 | binding signal (log2 enrichment (interaction score)) [18]: -7.48 | binding signal (log2 enrichment (interaction score)) [19]: -4.55 | binding signal (log2 enrichment (interaction score)) [20]: -6.51
